PubChem BioAssay AID1259425 – University of Nebraska Medical Center – 2018

- Assay: 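Compare each knockdown with KSR1 silencing using changes in marker transcripts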 (primary screen)
- System: HCT116 human colon cancer cells
- Reagent: siRNA pool against human genes, 50 nM siRNA
- Measurement: 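After 50 nM siRNA pool, branched-DNA assay measures six marker transcripts per well, minus blank, normalised to the geometric mean of two housekeeping transcripts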
- Direction: BNIP3L mRNA: higher = more BNIP3L transcript after knockdown; NDRG1 mRNA: higher = more NDRG1 transcript after knockdown
This is an unselected part of about 14,000 reagents tested. Not all columns of the deposit are shown. Not stated in the record: the time to read-out.

gene knocked down | BNIP3L mRNA, set 1 | NDRG1 mRNA, set 1
ZNF589 (GeneID 51385) | 0.103 | 0.113
IL36B (GeneID 27177) | 0.106 | 0.0986
CYTH4 (GeneID 27128) | 0.168 | 0.414
TPST1 (GeneID 8460) | 0.0748 | 0.168
VBP1 (GeneID 7411) | 0.116 | 0.16
SPHKAP (GeneID 80309) | 0.12 | 0.286
NR1H3 (GeneID 10062) | 0.0638 | 0.0966

Taken from above.
Result of VBP1 (GeneID 7411) in “BNIP3L mRNA, set 1”: 0.116
Result for SPHKAP (GeneID 80309) in “BNIP3L mRNA, set 1”: 0.12
Entry for IL36B (GeneID 27177) in “BNIP3L mRNA, set 1”: 0.106

Continued:
gene knocked down | BNIP3L mRNA, set 1 | NDRG1 mRNA, set 1
SERPINB3 (GeneID 6317) | 0.102 | 0.29
CLEC4E (GeneID 26253) | 0.111 | 0.318
PCK1 (GeneID 5105) | 0.0763 | 0.19
KCNH2 (GeneID 3757) | 0.0957 | 0.253
ZDHHC8 (GeneID 29801) | 0.268 | 0.192
CLIC5 (GeneID 53405) | 0.105 | 0.196
PRKAR2B (GeneID 5577) | 0.123 | 0.236
CSRNP3 (GeneID 80034) | 0.0861 | 0.183
ATP5PD (GeneID 10476) | 0.0685 | 0.296
DDX25 (GeneID 29118) | 0.15 | 0.616
FHL1 (GeneID 2273) | 0.0883 | 0.127
ZSWIM8 (GeneID 23053) | 0.0642 | 0.0791
RND2 (GeneID 8153) | 0.0543 | 0.26
